For one substance, binding results are on record in paper PMC5358333.

By UniProt entry, the sequences of proteins in these tests, tags left out.
UniProt P08670: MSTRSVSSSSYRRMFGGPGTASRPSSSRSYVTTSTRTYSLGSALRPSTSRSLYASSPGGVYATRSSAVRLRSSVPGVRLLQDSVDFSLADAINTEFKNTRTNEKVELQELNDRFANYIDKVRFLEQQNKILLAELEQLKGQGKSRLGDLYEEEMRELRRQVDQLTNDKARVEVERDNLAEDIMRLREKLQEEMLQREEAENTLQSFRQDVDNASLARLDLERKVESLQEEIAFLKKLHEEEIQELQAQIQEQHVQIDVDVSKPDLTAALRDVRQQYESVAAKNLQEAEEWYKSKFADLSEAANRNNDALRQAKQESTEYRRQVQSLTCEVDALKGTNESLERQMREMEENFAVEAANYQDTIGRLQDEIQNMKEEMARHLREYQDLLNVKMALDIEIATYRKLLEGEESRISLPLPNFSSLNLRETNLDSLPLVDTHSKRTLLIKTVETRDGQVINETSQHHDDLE

The assay has as its target T1, GEF-H1 (also known as ARHGEF2) (human (endogenous in U2OS)) (UniProt Q92974).
T1 sequence: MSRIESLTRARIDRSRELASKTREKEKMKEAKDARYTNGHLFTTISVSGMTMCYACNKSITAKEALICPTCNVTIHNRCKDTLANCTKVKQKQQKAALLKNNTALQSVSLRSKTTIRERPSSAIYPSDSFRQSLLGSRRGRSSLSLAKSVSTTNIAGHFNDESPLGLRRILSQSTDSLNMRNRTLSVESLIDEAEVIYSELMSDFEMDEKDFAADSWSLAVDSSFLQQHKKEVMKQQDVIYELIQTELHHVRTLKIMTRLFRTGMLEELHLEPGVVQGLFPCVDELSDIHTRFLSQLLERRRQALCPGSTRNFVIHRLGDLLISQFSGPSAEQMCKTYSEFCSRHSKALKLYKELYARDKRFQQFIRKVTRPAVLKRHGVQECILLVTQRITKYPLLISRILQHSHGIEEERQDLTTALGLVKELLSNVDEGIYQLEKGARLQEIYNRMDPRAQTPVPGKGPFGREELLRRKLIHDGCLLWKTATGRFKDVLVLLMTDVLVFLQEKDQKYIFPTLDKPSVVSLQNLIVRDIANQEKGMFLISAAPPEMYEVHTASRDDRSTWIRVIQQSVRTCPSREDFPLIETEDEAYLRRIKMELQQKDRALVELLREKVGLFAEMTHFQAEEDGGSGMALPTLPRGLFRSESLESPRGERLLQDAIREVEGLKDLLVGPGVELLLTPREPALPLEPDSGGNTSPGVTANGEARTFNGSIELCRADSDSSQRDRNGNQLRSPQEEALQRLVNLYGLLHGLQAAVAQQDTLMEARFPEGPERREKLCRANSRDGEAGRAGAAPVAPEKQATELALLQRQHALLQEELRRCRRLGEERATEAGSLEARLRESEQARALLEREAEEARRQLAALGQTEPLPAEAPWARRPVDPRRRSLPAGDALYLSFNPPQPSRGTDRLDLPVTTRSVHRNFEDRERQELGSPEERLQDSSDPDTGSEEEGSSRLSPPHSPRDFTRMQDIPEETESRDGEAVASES
Kind of assay: co-IP; U2OS whole-cell extract in NP-40 lysis buffer (50 mM Tris-HCl pH 7.4, 50 mM NaCl, 0.1% Triton X-100, 1% NP-40); anti-GEF-H1 antibody on Dynabeads, overnight at 4°C; blot with anti-vimentin antibody; IgG as negative control.

Results are given in words; binding and its absence hold for the method and conditions named. In cells and extracts the contact can be indirect. Some entries that bind do so weakly or less than the wild type.

On to vimentin (from UniProt P08670 1-466), for which the binding result was “binds”.
